Here are results for 14 targets from the supplement of paper PMC12067093, “Discovery and optimisation of a covalent ligand for TRIM25 and its application to targeted protein ubiquitination” (Chemical Science, 2025).

By UniProt entry, the sequences of proteins in these tests, tags left out. Where a name states a change or a piece, a line headed by the entry shows the natural chain unless it says otherwise.
UniProt P31146: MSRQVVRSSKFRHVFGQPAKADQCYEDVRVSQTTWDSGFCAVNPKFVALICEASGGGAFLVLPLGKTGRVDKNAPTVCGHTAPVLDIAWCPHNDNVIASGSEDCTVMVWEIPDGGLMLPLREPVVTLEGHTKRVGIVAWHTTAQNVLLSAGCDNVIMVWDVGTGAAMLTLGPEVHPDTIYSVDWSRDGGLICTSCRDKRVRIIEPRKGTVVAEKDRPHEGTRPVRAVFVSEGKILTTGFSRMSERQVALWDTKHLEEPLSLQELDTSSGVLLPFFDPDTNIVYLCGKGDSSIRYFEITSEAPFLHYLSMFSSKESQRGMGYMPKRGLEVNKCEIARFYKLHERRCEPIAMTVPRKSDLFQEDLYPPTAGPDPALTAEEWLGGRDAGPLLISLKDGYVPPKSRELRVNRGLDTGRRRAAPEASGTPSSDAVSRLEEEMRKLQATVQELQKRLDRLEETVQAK
UniProt P53621: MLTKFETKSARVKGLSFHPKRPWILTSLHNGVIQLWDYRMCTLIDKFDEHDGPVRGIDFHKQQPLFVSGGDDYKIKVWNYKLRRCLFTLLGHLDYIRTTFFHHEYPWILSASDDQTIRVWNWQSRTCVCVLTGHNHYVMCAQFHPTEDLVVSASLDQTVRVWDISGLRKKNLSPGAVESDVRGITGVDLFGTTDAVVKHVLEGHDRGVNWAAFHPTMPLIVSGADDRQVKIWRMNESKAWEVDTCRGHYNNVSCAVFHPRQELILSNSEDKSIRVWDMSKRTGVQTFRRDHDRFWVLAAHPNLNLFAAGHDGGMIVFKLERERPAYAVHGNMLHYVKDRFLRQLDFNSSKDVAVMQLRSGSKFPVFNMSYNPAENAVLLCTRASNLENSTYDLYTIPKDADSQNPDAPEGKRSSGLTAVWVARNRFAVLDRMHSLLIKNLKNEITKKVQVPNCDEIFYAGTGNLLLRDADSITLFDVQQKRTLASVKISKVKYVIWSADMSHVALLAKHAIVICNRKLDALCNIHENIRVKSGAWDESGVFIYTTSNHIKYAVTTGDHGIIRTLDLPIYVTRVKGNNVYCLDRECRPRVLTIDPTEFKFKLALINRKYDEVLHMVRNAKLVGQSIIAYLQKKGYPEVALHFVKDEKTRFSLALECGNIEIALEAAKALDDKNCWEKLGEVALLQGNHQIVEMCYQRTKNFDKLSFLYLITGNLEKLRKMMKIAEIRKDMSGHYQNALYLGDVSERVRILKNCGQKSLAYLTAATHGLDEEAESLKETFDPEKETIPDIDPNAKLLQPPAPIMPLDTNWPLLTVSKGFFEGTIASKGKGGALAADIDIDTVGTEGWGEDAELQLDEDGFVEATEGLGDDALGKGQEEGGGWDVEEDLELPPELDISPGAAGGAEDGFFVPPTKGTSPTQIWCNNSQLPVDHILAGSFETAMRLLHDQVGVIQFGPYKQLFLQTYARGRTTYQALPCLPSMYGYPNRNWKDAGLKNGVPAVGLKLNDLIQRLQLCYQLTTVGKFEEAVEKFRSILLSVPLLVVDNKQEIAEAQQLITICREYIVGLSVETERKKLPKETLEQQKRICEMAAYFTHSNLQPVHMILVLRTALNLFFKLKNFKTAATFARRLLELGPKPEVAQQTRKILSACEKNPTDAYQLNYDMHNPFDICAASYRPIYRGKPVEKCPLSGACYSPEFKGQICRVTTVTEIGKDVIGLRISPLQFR
UniProt Q9H9E3: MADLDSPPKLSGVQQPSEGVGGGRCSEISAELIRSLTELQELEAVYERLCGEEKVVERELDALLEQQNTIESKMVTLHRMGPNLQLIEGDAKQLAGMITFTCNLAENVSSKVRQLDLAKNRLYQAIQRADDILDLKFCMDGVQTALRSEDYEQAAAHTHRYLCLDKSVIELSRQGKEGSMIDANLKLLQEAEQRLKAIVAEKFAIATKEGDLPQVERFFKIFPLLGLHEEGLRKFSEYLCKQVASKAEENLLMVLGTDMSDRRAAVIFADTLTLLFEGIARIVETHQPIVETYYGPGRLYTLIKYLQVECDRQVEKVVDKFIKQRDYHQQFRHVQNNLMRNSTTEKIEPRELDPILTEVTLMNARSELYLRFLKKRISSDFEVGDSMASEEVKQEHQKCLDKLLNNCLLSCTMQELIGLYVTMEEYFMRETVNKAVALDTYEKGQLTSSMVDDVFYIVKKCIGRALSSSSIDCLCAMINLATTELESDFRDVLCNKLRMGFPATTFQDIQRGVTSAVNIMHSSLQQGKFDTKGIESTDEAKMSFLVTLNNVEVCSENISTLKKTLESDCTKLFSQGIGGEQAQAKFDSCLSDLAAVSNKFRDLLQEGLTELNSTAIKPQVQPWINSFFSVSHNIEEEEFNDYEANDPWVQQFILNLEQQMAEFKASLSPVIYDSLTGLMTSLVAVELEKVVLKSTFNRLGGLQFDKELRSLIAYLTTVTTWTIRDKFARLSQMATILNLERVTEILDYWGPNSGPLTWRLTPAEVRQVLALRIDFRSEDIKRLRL
UniProt Q9BQ75: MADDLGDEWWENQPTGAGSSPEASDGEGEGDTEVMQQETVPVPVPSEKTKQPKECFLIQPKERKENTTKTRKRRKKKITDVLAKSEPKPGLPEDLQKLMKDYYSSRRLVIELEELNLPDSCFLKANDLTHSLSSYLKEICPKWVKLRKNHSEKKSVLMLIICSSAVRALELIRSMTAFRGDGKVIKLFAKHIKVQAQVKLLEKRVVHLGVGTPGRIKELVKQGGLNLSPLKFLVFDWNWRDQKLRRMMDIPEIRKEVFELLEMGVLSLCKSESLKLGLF
UniProt Q14746: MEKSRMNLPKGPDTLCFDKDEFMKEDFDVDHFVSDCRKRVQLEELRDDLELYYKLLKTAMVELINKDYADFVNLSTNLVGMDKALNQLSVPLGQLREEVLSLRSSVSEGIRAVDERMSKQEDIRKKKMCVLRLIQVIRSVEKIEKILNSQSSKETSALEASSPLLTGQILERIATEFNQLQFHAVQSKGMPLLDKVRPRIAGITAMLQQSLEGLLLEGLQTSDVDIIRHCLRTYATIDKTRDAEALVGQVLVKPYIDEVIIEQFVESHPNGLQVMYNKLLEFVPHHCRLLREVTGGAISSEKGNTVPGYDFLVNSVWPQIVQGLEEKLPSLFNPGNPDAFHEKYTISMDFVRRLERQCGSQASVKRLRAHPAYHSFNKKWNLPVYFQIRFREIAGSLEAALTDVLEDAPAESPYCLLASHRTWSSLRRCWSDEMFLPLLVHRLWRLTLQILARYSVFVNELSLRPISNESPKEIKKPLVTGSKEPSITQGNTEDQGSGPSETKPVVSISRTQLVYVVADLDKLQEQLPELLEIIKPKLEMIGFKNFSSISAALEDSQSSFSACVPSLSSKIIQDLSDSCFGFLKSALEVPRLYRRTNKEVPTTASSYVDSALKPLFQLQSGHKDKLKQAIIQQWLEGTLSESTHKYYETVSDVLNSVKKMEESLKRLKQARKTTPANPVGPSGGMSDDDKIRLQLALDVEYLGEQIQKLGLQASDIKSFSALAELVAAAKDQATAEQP
UniProt P21964: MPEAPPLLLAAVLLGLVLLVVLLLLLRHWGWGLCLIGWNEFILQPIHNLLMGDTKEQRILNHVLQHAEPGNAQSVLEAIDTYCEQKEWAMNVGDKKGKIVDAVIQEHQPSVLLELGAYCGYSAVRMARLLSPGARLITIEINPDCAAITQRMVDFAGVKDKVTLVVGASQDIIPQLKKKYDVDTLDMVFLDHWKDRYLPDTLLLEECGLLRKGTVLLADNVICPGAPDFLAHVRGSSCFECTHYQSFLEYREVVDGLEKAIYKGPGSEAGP
UniProt Q9Y678: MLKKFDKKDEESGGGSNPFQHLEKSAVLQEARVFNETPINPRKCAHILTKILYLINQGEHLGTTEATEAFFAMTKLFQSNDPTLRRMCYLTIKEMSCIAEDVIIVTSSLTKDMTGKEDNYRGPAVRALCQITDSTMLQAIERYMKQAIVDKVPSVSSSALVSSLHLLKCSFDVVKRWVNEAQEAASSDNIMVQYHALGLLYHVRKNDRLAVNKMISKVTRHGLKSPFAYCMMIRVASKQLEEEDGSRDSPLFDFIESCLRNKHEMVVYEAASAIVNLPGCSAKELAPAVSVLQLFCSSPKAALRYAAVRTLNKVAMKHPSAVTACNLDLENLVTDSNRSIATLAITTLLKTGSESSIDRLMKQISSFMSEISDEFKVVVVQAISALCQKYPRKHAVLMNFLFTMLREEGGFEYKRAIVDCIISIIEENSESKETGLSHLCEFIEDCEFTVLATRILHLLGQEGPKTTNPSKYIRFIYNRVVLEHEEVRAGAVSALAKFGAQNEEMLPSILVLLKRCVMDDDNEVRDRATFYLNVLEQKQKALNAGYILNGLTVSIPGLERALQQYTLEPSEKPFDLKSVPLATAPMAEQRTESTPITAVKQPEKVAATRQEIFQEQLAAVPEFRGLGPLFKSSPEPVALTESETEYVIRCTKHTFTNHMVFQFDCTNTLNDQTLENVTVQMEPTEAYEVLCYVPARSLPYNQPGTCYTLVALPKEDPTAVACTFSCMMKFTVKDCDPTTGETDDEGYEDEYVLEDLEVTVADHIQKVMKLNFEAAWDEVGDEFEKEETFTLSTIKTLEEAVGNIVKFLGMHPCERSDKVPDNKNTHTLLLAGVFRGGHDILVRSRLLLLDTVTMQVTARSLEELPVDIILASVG
UniProt Q8WTW3: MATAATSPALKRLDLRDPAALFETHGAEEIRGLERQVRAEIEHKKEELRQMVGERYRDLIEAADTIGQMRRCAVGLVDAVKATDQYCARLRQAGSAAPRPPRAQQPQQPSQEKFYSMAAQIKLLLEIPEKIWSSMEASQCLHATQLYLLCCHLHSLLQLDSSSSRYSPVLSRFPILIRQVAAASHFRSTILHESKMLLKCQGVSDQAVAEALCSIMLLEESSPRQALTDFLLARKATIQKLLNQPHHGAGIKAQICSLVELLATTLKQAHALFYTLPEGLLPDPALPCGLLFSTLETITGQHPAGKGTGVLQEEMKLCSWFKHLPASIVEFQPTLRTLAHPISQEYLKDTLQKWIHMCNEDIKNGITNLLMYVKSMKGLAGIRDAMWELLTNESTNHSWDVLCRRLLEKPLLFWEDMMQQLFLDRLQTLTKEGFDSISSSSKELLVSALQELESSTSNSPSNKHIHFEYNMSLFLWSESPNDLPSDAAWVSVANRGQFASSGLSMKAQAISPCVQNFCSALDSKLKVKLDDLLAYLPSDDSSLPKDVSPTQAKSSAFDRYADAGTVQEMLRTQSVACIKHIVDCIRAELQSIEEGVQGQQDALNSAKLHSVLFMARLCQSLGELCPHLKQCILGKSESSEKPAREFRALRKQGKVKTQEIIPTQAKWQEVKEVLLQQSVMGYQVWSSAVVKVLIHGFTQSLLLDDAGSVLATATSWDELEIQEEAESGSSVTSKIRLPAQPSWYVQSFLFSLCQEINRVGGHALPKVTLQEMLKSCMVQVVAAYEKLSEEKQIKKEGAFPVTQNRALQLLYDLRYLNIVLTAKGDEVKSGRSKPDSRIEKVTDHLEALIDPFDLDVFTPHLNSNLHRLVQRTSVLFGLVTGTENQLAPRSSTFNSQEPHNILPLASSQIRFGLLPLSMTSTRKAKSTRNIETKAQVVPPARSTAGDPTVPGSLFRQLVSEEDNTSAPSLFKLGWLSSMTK

Some of the results follow.

Compound in the experiment: Cc1cc(ccc1-c1ccccc1)C(=O)N1CCCN(CC1)C(=O)CCl [compound 10]
Description: probe-labelled cysteine peptide fold change vs DMSO (competition) (log2 fold change); higher = less target engagement (more negative = stronger competition). The following applies: THP-1, incubation time: 4 h.
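Further: competitive profiling in live THP-1 cells: cysteine peptides tagged with an iodoacetamide desthiobiotin (IA-DTB) probe, intensity after compound treatment relative to DMSO-treated cells.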

“CORO1A_P31146_332_RGLEVNKCEIAR (UniProt P31146)”: the “probe-labelled cysteine peptide fold change” value was -0.447 (10 µM) and -0.96 (50 µM).

“COPA_P53621_1191_CPLSGACYSPEFK (UniProt P53621)”: the “probe-labelled cysteine peptide fold change” value worked out at 0.048 (10 µM) and 0.0304 (50 µM).

Consider “COLGALT1_Q8NBJ5_283_QAEVQMYVCNKEEYGFLPVPLR (UniProt Q8NBJ5)”, for which the “probe-labelled cysteine peptide fold change” value reads like this: (10 µM) 0.0375; (50 µM) -0.273.

With “COPA_P53621_514_HAIVICNR (UniProt P53621)”, the “probe-labelled cysteine peptide fold change” value (10 µM) amounted to 0.177 and the “probe-labelled cysteine peptide fold change” value (50 µM) is 0.352.

In the case of “CNTN1_Q12860_158_GMVLLCDPPYHFPDDLSYR (UniProt Q12860)”, the “probe-labelled cysteine peptide fold change” value is, setting by setting: (10 µM) -0.0707; (50 µM) -0.277.

“COG4_Q9H9E3_554_MSFLVTLNNVEVCSENISTLK (UniProt Q9H9E3)”: the “probe-labelled cysteine peptide fold change” value was -0.076 (10 µM) and -0.0319 (50 µM).

For “COLGALT1_Q8NBJ5_228_GCFAVPMVHSTFLIDLR (UniProt Q8NBJ5)”, the “probe-labelled cysteine peptide fold change” value (10 µM) was 0.305 and the “probe-labelled cysteine peptide fold change” value (50 µM) worked out at 0.311.

Regarding “CMSS1_Q9BQ75_55_ECFLIQPK (UniProt Q9BQ75)”, the “probe-labelled cysteine peptide fold change” value (10 µM) is 0.238 and the “probe-labelled cysteine peptide fold change” value (50 µM) is -0.0333.

Consider “COG2_Q14746_36_EDFDVDHFVSDCR (UniProt Q14746)”, for which the “probe-labelled cysteine peptide fold change” value amounted to 0.0716 (10 µM) and 0.262 (50 µM).

“COMT_P21964_145_LITIEINPDCAAITQR (UniProt P21964)”: the “probe-labelled cysteine peptide fold change” value amounted to 0.142 (10 µM) and 0.0298 (50 µM).

Take “CNOT1_A5YKK6_972_DYPQYCQHLASISHFMQFPHHLQEYIEYGQQSR (UniProt A5YKK6)”: the “probe-labelled cysteine peptide fold change” value is -0.168 (10 µM) and -0.135 (50 µM).

For the target “CNTRL_Q7Z7A1_1451_EADRLLAEAESELSCTK (UniProt Q7Z7A1)”, the “probe-labelled cysteine peptide fold change” value runs as follows: (10 µM) 0.121; (50 µM) 0.0492.

For “COPG1_Q9Y678_280_NKHEMVVYEAASAIVNLPGCSAK (UniProt Q9Y678)”, the “probe-labelled cysteine peptide fold change” value was -0.00816 (10 µM) and -0.0912 (50 µM).

In the case of “COG1_Q8WTW3_72_CAVGLVDAVK (UniProt Q8WTW3)”, the “probe-labelled cysteine peptide fold change” value (10 µM) was found to be 0.121 and the “probe-labelled cysteine peptide fold change” value (50 µM) was -0.197.
